# Data source: PubChem BioAssay AID1259424 (University of Nebraska Medical Center, 2018)
# Screen: 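Seek colon cancer survival genes behaving like KSR1, using a six-gene signature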 (primary screen)
# System: human HCT116 colon cancer cells
# Reagents: siRNA pool against human genes, 50 nM
# Read-out: 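Log2 levels of six mRNAs (branched-DNA multiplex), adjusted by two reference genes and the non-targeting median, then scored against the average KSR1 knockdown pattern as Pearson r and euclidean distance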
# Direction: mean correlation with KSR1 profile: higher = expression change more like KSR1 knockdown; mean distance from KSR1 profile: higher = expression change less like KSR1 knockdown
# In all, the deposit lists about 14,000 reagents; below is a random part of them. 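Higher correlation or smaller distance means closer resemblance to KSR1 loss; control wells, including KSR1 knockdowns, recur on many plates.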 Further read-outs or replicates are left out here. The record does not give: the time to read-out.
gene,mean correlation with KSR1 profile,mean distance from KSR1 profile
CRTAM,-0.162,2.31
PREB,0.371,1.33
SYTL2,-0.313,2.73
BHMT2,-0.49,1.85
KIF22,0.217,1.56
ANK1,-0.127,1.25
STK16,-0.346,2.24
TAAR2,0.828,1.35
TUB,-0.46,1.87
CDC25B,-0.601,1.88
PIK3C2G,0.83,1.24
KLRB1,-0.58,2.34
GRHL3,-0.435,2.92
GNG12,0.64,1.91
PAAF1,-0.0086,1.78
PTPN11,-0.363,0.996
ABCD1,-0.328,1.92
ATG14,0.000182,1.07
HTR1E,0.305,1.7
REN,0.503,3.53
EHD4,0.176,1.72
CREB5,-0.204,2.54

Just “mean distance from KSR1 profile” (2 entries from above):
ABCD1 = 1.92
ATG14 = 1.07

More entries follow:
gene,mean correlation with KSR1 profile,mean distance from KSR1 profile
CCDC81,-0.129,1.25
SLC22A2,-0.425,1.94
TMEM243,0.702,2.63
PPFIBP2,0.429,2.23
DLG4,0.0843,2.99
H3-3A,0.37,1.39
GJD2,0.126,1.76
YWHAZ,0.518,0.994
NUDC,0.00266,3.05
CBX6,-0.386,2.24
CDK8,0.322,1.75
ZCWPW1,0.228,1.92
